In PMC5874046, “Interaction of HuDA and PABP at 5'UTR of mouse insulin2 regulates insulin biosynthesis”:
Results are given in words; binding and its absence hold for the method and conditions named. Some results given as binding are weak or reduced against the parent protein; the word gives no strength.

Sequences of proteins named here, by UniProt entry; tags and fusion partners are left off. A change or cut given only in a name is not applied to a line headed by its entry. A line that says so, or that is headed by a name, gives the form on record, which may keep a tag or linker.
UniProt P29341: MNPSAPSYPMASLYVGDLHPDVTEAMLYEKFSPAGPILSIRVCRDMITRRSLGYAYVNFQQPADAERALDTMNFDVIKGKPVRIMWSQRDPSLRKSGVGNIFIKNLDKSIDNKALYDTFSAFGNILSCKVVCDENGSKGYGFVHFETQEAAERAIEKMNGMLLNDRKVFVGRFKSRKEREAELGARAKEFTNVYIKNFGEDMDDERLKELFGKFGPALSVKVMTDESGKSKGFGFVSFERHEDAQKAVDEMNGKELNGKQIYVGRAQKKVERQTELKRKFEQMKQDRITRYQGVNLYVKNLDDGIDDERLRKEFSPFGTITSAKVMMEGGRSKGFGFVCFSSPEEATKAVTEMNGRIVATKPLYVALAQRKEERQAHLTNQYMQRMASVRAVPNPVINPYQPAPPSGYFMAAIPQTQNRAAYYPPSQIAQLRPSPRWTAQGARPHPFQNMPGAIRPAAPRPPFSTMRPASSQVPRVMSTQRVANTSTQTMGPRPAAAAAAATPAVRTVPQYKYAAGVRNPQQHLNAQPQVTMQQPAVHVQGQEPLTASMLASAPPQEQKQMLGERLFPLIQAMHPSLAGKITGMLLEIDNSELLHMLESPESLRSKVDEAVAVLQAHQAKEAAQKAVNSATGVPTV
UniProt Q61701: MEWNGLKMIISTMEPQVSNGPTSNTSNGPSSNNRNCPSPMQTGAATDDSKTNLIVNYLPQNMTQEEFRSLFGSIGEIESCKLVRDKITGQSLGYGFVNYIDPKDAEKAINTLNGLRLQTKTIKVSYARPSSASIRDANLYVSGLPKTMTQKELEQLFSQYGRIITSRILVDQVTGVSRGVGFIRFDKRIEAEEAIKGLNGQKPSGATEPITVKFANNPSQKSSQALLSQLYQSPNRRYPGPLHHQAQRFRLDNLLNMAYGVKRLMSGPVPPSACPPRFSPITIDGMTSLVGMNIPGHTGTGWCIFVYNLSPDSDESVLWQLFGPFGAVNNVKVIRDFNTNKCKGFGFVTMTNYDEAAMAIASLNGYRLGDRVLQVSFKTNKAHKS
GST-HuD B (Q61701-4, form named): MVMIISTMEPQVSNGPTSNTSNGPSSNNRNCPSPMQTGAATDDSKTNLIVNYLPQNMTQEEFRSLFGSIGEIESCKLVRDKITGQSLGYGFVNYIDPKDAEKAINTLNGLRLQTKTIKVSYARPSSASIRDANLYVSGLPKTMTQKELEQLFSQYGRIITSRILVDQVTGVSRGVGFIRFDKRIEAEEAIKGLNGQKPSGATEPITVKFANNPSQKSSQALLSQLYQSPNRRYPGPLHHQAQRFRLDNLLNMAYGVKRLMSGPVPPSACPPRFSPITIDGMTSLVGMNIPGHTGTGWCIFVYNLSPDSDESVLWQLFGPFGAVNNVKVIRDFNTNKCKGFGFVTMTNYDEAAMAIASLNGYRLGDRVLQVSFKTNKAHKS

What was measured:
[1] = target: His-PABP (recombinant poly-A-binding protein) (UniProt P29341); assay: co-IP; purified recombinant His-PABP, His-HuD A and His-GFP (2 μg each) mixed with PDIΔC (Fig 7D right panel: without Ins2L 5'UTR RNA); IP with anti-PABP antibody; western blot; both purified
GST-HuD B [2] = target: T1, GST-HuD B (mouse, UniProt Q61701-4 1-380); assay: pull-down; GST pull-down: His-PABP incubated with GST or GST-HuD B, no RNA added; western blot; both purified
GST-HuD B [3] = target: T1, GST-HuD B; assay: pull-down; GST pull-down from a mixture of recombinant His-PABP, GST-HuD B and His-PDI or His-PDIΔC; western blot; both purified
His-HuD A = His-HuD A (mouse, UniProt Q61701 1-385); assay: co-IP; purified recombinant His-PABP, His-HuD A and His-GFP (2 μg each) mixed with PDIΔC, with or without long 5'UTR RNA (150 ng); IP with anti-HuD antibody; western blot; both purified

Substance	binding [1]	binding (GST-HuD B [2])	binding (GST-HuD B [3])	binding (His-HuD A)
His-HuD A (from UniProt Q61701-1 1-385)	no binding (condition: in the presence of PDIΔC)	–	–	–
His-PABP (recombinant poly-A-binding protein) (from UniProt P29341 1-636)	–	binds	binds	binds
